Earlier results as cited in patent US10736889B2, “Method of treating dyskinesia” (Rutgers, The State University of New Jersey, priority 2011, dated 2020).

Tested on: Parkinsonian primates and patients

## CN1CC[C@]23c4c5ccc(O)c4O[C@H]2[C@@H](O)C=C[C@H]3[C@H]1C5 [Morphine]
  dyskinetic movements: reduces dyskinetic movements
